This assay has as its target SARS-CoV-2 nsp14, Strep II-tagged (SARS-CoV-2) (UniProt P0DTD1). Description: affinity purification with mass spectrometry.

Amino acid sequences for entries named in this document (tags omitted). Residues count along the entry.
UniProt Q9H1K1, residues 35-167: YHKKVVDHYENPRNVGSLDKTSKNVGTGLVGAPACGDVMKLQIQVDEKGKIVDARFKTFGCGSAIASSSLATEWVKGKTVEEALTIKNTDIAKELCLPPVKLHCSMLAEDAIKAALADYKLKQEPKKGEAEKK

No constants are given. Whether binding was seen depends on the method and setting. In cells and extracts the contact can be indirect. These calls come from enrichment with a bait or labelling near it, and not all partners need be listed.

Take “ISCU (iron-sulfur cluster assembly scaffold) (from UniProt Q9H1K1 35-167)”: the binding result is listed as “binds”. As for PCBP1 (from UniProt Q15365 1-356), the binding entry is “binds”.

B1: BOLA2 (protein, UniProt Q9H3K6 1-86)
chain: MELSAEYLREKLQRDLEAEHVEVEDTTLNRCSCSFRVLVVSAKFEGKPLLQRHRLVNACLAEELPHIHAFEQKTLTPDQWARERQK
For B1, the binding result was “binds”.
